From PMC9910007
These are yes or no findings as the source states them, for the method shown. In cells and extracts the contact can be indirect. Some binding calls cover weakened binding; strength is not graded here.

Chains of the proteins cited; added tags and fusions are not shown.
UniProt P84025: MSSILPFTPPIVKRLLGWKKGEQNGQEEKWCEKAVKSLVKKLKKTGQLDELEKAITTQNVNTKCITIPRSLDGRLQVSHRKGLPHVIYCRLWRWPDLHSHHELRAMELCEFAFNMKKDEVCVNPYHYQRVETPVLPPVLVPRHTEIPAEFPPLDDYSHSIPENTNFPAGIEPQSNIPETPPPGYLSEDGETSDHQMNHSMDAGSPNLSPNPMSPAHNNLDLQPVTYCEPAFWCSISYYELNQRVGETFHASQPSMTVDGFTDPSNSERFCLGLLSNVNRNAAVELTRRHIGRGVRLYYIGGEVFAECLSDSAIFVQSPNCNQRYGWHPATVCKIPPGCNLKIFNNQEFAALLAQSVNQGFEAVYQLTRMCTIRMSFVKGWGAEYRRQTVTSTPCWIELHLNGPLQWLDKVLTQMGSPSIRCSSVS

Molecular target: T1, FAT10, endogenous in neonatal rat cardiac fibroblasts (rat (endogenous in NRCFs)) (UniProt Q921A3)
T1 sequence: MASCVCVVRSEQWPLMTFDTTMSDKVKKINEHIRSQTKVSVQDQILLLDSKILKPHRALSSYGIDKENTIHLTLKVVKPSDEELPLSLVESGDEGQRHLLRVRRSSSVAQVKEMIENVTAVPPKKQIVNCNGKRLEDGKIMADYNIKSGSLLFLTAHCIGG
Experiment: co-IP; endogenous proteins in NRCFs

Substance: Smad3, endogenous in neonatal rat cardiac fibroblasts (from UniProt P84025 1-425)
- binding: binds
